Taken from: PubChem BioAssay AID504764 (Drosophila RNAi Screening Center, 2011)

Assay: 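Genes whose knock-down alters Notch-dependent transcription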 (primary screen)
Cells: Drosophila Kc167 cells
Knock-down reagent: long dsRNA against Drosophila genes
Timing: about 5 days (4 days dsRNA, then 24 h after transfection)
Treatment: transfection of constitutively active membrane-tethered Notch lacking the extracellular domain, read 24 h later
Detection: 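Light from a Notch-responsive E(spl)m3 luciferase reporter under active Notch, with control-promoter and no-Notch reporter wells to normalise; raw counts from paired wells a and b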
Scale: induced reporter light, run 1, well a and induced reporter light, run 1, well b: higher = more light from the Notch target reporter with active Notch; control promoter light, run 1, well a and control promoter light, run 1, well b: higher = more light from the viral control promoter (cell number, transfection, viability); uninduced reporter light, run 1, well a: higher = more light from the Notch target reporter without active Notch
Call rule: 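Wells with low control signal or poorly matching duplicates excluded; duplicates averaged; per source plate, z beyond ±2 for induced/control log2 ratio or beyond ±1.8 for induced/uninduced marks a hit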
Meaning of the calls: active = modifier hit (raised or lowered Notch signal); inactive = not a hit
The deposit covers about 22,000 reagents; shown is an unselected part of those that have a named target and a result. In the full data, 403 (1.9%) were called active. 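Unnormalised raw counts per well; ratio z-scores behind the hit calls and whether each hit raises or lowers signal are not deposited.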 A number with no mark means an inactive call. A plus sign joins genes that one reagent is predicted to hit. Not given: the amount of reagent.

CG2938 (GeneID 31347) [DRSC18243] — induced reporter light, run 1, well a: 1.54e5; induced reporter light, run 1, well b: 1.56e5; control promoter light, run 1, well a: 2.00e5; control promoter light, run 1, well b: 2.37e5; uninduced reporter light, run 1, well a: 12345
Cpr97Eb (GeneID 43259) [DRSC15123] — induced reporter light, run 1, well a: 1.32e5; induced reporter light, run 1, well b: 1.24e5; control promoter light, run 1, well a: 1.97e5; control promoter light, run 1, well b: 1.96e5; uninduced reporter light, run 1, well a: 12845
Proc (GeneID 250710) [DRSC03009] — induced reporter light, run 1, well a: 9255; induced reporter light, run 1, well b: 9890; control promoter light, run 1, well a: 9432; control promoter light, run 1, well b: 7342; uninduced reporter light, run 1, well a: 4255
SF2 (GeneID 53443) [DRSC16845] — induced reporter light, run 1, well a: 84330; induced reporter light, run 1, well b: 75455; control promoter light, run 1, well a: 51510; control promoter light, run 1, well b: 52130; uninduced reporter light, run 1, well a: 7278
mam (GeneID 36555) [DRSC05468] — induced reporter light, run 1, well a: 11440; induced reporter light, run 1, well b: 13865; control promoter light, run 1, well a: 13210; control promoter light, run 1, well b: 13860; uninduced reporter light, run 1, well a: 5815
mam (GeneID 36555) [DRSC07648] — induced reporter light, run 1, well a: 8865; induced reporter light, run 1, well b: 7025; control promoter light, run 1, well a: 11820; control promoter light, run 1, well b: 6670; uninduced reporter light, run 1, well a: 2600
Ir60a (GeneID 37881) [DRSC04212] — induced reporter light, run 1, well a: 1.65e5; induced reporter light, run 1, well b: 1.39e5; control promoter light, run 1, well a: 1.43e5; control promoter light, run 1, well b: 1.54e5; uninduced reporter light, run 1, well a: 11200

Next part; the last 2 above are carried over.
mam (GeneID 36555) [DRSC07648] — induced reporter light, run 1, well a: 8865; induced reporter light, run 1, well b: 7025; control promoter light, run 1, well a: 11820; control promoter light, run 1, well b: 6670; uninduced reporter light, run 1, well a: 2600
Ir60a (GeneID 37881) [DRSC04212] — induced reporter light, run 1, well a: 1.65e5; induced reporter light, run 1, well b: 1.39e5; control promoter light, run 1, well a: 1.43e5; control promoter light, run 1, well b: 1.54e5; uninduced reporter light, run 1, well a: 11200
Unc50 (GeneID 41029) [DRSC16561] — induced reporter light, run 1, well a: 1.03e5; induced reporter light, run 1, well b: 98820; control promoter light, run 1, well a: 78980; control promoter light, run 1, well b: 68705; uninduced reporter light, run 1, well a: 5785
Mks1 (GeneID 32200) [DRSC19697] — induced reporter light, run 1, well a: 43575 (active); induced reporter light, run 1, well b: 40685; control promoter light, run 1, well a: 36485; control promoter light, run 1, well b: 35600; uninduced reporter light, run 1, well a: 3175
RpS10a (GeneID 43321) [DRSC14161] — induced reporter light, run 1, well a: 1.51e5; induced reporter light, run 1, well b: 1.77e5; control promoter light, run 1, well a: 2.10e5; control promoter light, run 1, well b: 2.06e5; uninduced reporter light, run 1, well a: 12410
Crtc (GeneID 39970) [DRSC10578] — induced reporter light, run 1, well a: 31445; induced reporter light, run 1, well b: 23410; control promoter light, run 1, well a: 38400; control promoter light, run 1, well b: 26690; uninduced reporter light, run 1, well a: 2945
inaF-B + inaF-D + inaF-C + 1 more [DRSC20342] — induced reporter light, run 1, well a: 1.19e5; induced reporter light, run 1, well b: 1.00e5; control promoter light, run 1, well a: 2.20e5; control promoter light, run 1, well b: 2.00e5; uninduced reporter light, run 1, well a: 8890
